Earlier results as cited in US8680288B2, “Pyridin-2yl sulfanyl acid esters and process for the preparation thereof” (Council of Scientific & Industrial Research, priority 2010, dated 2014).
At least one compound was matched to its structure with a doubt left.

Test system: acute lung Injury model
Conditions: literature reference; cited from earlier work

C[C@@H]1C[C@H]2[C@@H]3CCC4=CC(=O)C=C[C@]4(C)[C@@]3(F)[C@@H](O)C[C@]2(C)[C@@]1(O)C(=O)CO [Dexamethasone]
Efficacious Dose: 3 mg/kg
